The text below walks through data of patent publication US20230159587A1 (L-BASE CO., LTD., priority 2021, published 2023).

A short description of this data set: general procedure: solution-phase peptide synthesis; HATU / N,N-diisopropylethylamine. To be noted: late stage modification step.

For the substance 2-PhPh-AQTGTGKT, the “final purity (method not given)” value is “purity of 95% or more” and the step yield is 31% yield.

As for 3-PhPh-AQTGTGKT, the “final purity (method not given)” value is listed as “purity of 90% or more” and the step yield was 5% yield.

Consider 4-MeOPh-AQTGTGKT, for which the “final purity (method not given)” value was found to be 89% and the step yield worked out at 10% yield.

Ac-AQTGTGKT registered a step yield of 37% yield.

Regarding Naphthyl-AQTGTGKT, the “final purity (method not given)” value was determined as 85% and the step yield is given as 33% yield.

As for Ph-AQTGTGKT, the “final purity (method not given)” value is reported as “purity of 90% or more” and the step yield turned out to be 33% yield.
